# From the supplement of paper PMC10849652
# Protein sequences, listed by entry. Tags and fused reporters are not part of them. Lines headed by an entry give the natural chain unless they say otherwise; changes in a name come on top.
# UniProt Q13049: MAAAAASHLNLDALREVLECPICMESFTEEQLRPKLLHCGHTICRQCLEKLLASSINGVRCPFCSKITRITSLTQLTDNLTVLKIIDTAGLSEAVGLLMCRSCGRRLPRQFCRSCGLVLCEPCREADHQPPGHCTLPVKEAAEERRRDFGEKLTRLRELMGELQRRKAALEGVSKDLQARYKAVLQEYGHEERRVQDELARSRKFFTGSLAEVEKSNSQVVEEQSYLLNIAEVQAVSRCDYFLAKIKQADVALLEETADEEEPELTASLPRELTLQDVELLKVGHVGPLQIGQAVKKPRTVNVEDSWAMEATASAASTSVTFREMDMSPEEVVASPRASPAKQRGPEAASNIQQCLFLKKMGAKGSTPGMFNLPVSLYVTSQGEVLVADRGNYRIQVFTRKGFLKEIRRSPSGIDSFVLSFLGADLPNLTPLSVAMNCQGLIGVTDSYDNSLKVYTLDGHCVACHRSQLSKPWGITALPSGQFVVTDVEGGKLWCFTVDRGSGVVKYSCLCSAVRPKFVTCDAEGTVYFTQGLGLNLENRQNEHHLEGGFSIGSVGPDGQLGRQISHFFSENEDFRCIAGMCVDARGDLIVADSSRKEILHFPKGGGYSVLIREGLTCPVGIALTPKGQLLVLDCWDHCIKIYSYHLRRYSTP
# UniProt Q9NS69: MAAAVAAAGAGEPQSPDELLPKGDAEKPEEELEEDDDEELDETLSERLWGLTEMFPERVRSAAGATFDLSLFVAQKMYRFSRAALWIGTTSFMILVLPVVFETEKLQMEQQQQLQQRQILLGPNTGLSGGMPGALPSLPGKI
# UniProt Q8N4H5: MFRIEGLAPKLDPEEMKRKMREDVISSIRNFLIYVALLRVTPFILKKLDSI
# UniProt O60784, whole entry, looked up: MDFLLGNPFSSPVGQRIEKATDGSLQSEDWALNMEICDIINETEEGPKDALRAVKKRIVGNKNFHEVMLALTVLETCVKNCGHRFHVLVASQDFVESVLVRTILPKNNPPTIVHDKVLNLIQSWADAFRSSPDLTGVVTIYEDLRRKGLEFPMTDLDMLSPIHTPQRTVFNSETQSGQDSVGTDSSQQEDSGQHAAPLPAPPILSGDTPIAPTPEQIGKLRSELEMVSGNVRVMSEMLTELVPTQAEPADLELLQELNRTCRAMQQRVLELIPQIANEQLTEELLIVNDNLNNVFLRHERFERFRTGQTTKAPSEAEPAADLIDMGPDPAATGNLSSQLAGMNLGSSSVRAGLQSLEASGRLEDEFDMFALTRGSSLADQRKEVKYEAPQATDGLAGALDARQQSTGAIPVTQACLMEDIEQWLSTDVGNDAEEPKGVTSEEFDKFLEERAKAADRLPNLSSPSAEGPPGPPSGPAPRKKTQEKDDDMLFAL
# UniProt Q9UL33, whole entry, looked up: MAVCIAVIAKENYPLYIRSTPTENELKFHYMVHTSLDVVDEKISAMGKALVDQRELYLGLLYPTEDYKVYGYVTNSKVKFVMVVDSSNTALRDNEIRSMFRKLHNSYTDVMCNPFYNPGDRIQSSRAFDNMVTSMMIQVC
# UniProt Q15642: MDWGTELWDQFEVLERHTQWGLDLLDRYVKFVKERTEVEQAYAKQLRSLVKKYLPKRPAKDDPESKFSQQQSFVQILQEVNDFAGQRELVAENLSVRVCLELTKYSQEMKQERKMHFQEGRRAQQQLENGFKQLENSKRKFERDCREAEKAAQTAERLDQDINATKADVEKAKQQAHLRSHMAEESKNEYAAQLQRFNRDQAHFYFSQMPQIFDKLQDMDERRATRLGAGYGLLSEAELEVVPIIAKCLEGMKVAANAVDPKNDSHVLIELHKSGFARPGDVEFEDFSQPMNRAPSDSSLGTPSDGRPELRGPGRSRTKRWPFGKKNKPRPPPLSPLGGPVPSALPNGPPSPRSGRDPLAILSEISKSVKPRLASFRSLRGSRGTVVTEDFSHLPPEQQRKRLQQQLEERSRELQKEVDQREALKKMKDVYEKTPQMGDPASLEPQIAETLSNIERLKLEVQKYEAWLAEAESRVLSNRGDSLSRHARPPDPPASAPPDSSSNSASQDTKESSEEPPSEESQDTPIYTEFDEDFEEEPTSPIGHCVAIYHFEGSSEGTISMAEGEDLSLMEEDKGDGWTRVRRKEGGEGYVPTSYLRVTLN
# UniProt O43399: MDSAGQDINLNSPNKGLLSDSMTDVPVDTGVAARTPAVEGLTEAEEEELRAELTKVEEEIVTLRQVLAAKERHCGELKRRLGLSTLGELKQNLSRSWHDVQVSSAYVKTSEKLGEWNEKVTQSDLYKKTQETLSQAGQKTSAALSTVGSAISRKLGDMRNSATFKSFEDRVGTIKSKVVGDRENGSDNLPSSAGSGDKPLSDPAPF
# UniProt O75674: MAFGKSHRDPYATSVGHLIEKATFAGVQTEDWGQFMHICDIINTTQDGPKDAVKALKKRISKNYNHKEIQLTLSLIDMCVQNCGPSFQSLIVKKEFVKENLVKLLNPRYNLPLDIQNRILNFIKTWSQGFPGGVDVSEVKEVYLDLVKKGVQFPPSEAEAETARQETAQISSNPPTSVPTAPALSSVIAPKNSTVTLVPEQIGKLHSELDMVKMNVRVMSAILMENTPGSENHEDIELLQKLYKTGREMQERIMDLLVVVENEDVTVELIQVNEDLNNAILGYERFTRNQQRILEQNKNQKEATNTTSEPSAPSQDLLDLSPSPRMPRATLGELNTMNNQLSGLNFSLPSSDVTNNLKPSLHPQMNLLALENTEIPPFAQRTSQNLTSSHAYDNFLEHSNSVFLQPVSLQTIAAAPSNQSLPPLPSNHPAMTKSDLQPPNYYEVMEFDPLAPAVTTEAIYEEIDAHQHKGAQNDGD
# UniProt O94842: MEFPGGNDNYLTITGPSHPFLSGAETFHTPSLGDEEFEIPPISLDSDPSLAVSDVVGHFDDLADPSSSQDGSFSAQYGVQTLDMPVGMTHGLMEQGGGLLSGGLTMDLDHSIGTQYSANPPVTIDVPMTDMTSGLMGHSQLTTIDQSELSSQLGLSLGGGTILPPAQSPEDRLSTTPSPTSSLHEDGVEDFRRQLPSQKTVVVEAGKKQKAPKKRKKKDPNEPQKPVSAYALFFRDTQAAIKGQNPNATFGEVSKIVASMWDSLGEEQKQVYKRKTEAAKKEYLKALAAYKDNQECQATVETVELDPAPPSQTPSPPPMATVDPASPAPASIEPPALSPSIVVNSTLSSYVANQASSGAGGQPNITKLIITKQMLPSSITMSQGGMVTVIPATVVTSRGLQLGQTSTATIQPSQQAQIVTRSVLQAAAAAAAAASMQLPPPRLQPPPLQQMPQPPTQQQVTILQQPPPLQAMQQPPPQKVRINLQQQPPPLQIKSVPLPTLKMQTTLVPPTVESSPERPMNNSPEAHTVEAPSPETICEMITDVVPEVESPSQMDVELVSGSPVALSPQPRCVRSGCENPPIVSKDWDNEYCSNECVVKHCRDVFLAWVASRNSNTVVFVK
# UniProt Q16890: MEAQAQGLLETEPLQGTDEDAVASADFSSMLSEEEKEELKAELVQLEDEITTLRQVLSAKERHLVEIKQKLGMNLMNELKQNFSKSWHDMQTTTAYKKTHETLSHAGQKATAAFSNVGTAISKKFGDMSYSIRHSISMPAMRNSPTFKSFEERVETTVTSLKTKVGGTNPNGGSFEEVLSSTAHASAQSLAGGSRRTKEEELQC
# UniProt O43715: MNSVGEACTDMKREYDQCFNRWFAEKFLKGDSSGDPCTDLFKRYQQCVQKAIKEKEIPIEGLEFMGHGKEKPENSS
# UniProt Q8NCE0: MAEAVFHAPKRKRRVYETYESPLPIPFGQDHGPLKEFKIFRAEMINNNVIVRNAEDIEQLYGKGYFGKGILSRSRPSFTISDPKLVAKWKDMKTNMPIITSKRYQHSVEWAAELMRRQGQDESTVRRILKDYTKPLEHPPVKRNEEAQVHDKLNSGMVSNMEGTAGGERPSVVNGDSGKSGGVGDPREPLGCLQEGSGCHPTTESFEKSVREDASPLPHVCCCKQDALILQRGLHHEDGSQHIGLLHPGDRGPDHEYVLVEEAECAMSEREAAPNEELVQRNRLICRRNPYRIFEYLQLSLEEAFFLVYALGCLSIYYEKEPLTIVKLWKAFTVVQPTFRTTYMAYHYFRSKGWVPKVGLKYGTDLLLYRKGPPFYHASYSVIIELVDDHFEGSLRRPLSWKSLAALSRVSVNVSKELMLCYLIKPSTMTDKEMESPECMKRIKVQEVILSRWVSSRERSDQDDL
# UniProt P28908: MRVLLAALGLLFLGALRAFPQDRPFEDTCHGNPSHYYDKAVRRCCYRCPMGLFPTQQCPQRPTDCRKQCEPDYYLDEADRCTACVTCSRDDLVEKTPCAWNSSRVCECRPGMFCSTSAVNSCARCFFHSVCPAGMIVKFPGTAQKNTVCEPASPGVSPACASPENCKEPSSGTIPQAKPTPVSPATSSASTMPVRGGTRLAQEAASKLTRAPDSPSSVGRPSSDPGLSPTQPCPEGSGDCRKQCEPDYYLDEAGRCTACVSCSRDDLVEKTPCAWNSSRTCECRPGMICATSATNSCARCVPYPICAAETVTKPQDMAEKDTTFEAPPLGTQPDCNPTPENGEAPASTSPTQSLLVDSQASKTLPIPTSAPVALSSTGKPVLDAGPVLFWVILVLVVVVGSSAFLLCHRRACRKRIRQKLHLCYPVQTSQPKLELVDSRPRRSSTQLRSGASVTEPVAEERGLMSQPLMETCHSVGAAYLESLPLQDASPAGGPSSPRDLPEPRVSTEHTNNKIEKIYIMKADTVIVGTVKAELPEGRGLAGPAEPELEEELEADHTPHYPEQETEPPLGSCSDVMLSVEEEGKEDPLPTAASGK
# UniProt O14656: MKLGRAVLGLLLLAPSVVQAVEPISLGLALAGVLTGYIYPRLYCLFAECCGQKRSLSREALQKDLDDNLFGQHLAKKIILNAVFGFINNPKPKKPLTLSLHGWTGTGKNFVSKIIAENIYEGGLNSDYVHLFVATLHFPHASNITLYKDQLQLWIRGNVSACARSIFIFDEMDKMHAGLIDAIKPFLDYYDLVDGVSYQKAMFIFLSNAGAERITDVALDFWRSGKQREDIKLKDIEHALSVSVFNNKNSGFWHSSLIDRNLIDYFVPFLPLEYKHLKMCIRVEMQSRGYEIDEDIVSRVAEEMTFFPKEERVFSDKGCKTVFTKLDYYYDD
# UniProt Q9NUP7: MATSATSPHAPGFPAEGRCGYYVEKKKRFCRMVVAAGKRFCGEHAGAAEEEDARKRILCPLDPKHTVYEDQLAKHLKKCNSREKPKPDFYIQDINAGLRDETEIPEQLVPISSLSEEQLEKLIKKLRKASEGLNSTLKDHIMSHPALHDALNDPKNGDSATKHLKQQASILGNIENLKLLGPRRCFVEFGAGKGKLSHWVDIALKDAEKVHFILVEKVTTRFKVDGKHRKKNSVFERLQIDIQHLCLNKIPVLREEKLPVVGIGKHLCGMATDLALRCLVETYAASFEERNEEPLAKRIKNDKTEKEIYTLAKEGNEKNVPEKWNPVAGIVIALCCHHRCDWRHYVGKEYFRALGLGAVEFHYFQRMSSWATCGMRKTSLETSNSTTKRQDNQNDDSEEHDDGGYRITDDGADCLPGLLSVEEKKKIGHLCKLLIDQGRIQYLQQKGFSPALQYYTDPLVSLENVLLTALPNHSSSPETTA
# UniProt Q7Z2T5: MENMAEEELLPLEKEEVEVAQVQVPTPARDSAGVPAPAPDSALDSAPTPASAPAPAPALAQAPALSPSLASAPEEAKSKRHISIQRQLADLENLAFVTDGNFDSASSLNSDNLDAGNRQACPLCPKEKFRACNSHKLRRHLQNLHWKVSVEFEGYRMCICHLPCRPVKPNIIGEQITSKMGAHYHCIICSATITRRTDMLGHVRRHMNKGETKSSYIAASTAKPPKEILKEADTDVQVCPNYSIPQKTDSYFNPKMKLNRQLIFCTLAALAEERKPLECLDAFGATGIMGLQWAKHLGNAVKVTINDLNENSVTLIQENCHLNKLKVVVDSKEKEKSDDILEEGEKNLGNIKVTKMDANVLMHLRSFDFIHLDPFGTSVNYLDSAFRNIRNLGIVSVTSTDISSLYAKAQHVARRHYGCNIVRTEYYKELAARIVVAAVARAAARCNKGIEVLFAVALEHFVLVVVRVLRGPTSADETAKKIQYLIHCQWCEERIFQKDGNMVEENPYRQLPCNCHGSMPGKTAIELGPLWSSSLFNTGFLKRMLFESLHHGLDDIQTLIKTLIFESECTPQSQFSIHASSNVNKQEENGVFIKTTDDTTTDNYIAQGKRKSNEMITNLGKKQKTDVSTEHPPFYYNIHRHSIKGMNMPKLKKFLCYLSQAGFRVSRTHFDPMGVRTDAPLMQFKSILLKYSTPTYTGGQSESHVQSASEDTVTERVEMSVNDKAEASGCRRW
# UniProt P51580: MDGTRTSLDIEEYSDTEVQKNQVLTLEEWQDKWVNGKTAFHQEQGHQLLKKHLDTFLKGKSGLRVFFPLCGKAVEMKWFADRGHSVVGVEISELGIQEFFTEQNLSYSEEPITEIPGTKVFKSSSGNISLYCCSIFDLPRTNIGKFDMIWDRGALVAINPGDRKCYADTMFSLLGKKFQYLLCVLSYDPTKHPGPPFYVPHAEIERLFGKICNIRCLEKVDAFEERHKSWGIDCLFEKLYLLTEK
# Some of the results follow.
# Compound: NC(=O)c1cnc(N[C@@H]2CCCC[C@@H]2N)nc1Nc1cccc(-n2nccn2)c1
# Assay: log2 fold change, soluble protein after heating vs DMSO (PISA); higher = thermal stabilisation; K562 cells, 10 uM, 30 min; active = over 0.2 and 3.5 SD of the protein, either way, in both replicates (recomputed)
# Summary of the method: (§1)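 Values are thermal stability changes relative to control samples and are taken from duplicates. They are stated as log2 fold changes. Before quantification by TMTpro 16plex LC-MS/MS with equalised channel sums, K562 cells at 2×10^6 cells/mL were treated with 10 μM compound for 30 min, heated in aliquots for 3 min across 48°C-58°C, pooled, extracted in PBS with 0.5% NP-40 at 4°C, and centrifuged at 21,000xg for 90 min to give the soluble supernatant.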
row,Target,log2 fold change
1,TRIM32 (UniProt Q13049),inactive: -0.066
2,TOMM22 (UniProt Q9NS69),inactive: -0.012
3,TOMM5 isoform 2 (UniProt Q8N4H5),inactive: 0.002
4,TOM1 isoform 2 (UniProt O60784),inactive: -0.104
5,TRAPPC2L (UniProt Q9UL33),inactive: -0.025
6,TRIP10 isoform 2 (UniProt Q15642),inactive: 0.057
7,TPD52L2 isoform 7 (UniProt O43399),inactive: -0.028
8,"TPM4, A0A2R8Y5V9",inactive: 0.019
9,TOM1L1 (UniProt O75674),inactive: 0.102

# Compound: NC1(c2ccc(-c3nc4ccn5c(=O)[nH]nc5c4cc3-c3ccccc3)cc2)CCC1
# Assay: as above
# Summary of the method: as §1
row,Target,log2 fold change
1,TOX4 (UniProt O94842),inactive: 0.185
2,TPD52L1 (UniProt Q16890),inactive: 0.016
3,TNPO3 (UniProt Q9Y5L0),active: -0.221
4,TPM1 (UniProt H7BYY1),inactive: -0.004
5,TOLLIP (UniProt Q9H0E2),inactive: -0.012
6,TRA2B (UniProt P62995),inactive: 0.494
7,TP53BP1 isoform 2 (UniProt Q12888),inactive: -0.072
8,TRIAP1 (UniProt O43715),inactive: 0.045
9,TRIP10 (UniProt Q15642),inactive: -0.129
10,TPM4 isoform 2 (UniProt P67936),inactive: -0.071
11,TSEN2 (UniProt Q8NCE0),inactive: -0.126
12,TNFRSF8 (UniProt P28908),inactive: 0.106
13,TPM2 (UniProt P07951),inactive: 0.157
14,TPX2 (UniProt Q9ULW0),inactive: 0.078
15,TPST2 (UniProt O60704),inactive: 0.218
16,TOR1A (UniProt O14656),inactive: -0.093

row,Target,log2 fold change
1,TRMT13 (UniProt Q9NUP7),inactive: -0.114
2,TRMT1L (UniProt Q7Z2T5),inactive: 0.257
3,TPMT (UniProt P51580),inactive: -0.048
4,TPI1 (UniProt P60174),inactive: 0.022
5,TOR4A (UniProt Q9NXH8),inactive: -0.006
6,TNKS1BP1 (UniProt Q9C0C2),inactive: 0.055
7,TRAPPC11 (UniProt Q7Z392),inactive: -0.187
8,TRIM32 (UniProt Q13049),inactive: -0.035
9,TOMM22 (UniProt Q9NS69),inactive: 0.006
10,TOMM5 isoform 2 (UniProt Q8N4H5),inactive: -0.083
11,TOM1 isoform 2 (UniProt O60784),inactive: -0.066
12,TRAPPC2L (UniProt Q9UL33),inactive: -0.126
13,TRIP10 isoform 2 (UniProt Q15642),inactive: -0.065
14,TPD52L2 isoform 7 (UniProt O43399),inactive: 0.014
15,"TPM4, A0A2R8Y5V9",inactive: -0.025
16,TOM1L1 (UniProt O75674),inactive: 0.008

# Compound: NCC(=O)Nc1ccc(-n2nc(C(F)(F)F)cc2-c2ccc3c(ccc4ccccc43)c2)cc1
# Assay: as above
# Summary of the method: as §1
row,Target,log2 fold change
1,TOX4 (UniProt O94842),inactive: 0.094
2,TPD52L1 (UniProt Q16890),inactive: 0.059
3,TNPO3 (UniProt Q9Y5L0),inactive: -0.024
4,TPM1 (UniProt H7BYY1),inactive: 0.033
5,TOLLIP (UniProt Q9H0E2),inactive: 0
6,TRA2B (UniProt P62995),inactive: 0.04
7,TP53BP1 isoform 2 (UniProt Q12888),inactive: -0.008
8,TRIAP1 (UniProt O43715),inactive: -0.005
9,TRIP10 (UniProt Q15642),inactive: -0.011
10,TPM4 isoform 2 (UniProt P67936),inactive: 0.211
11,TSEN2 (UniProt Q8NCE0),inactive: -0.024
12,TNFRSF8 (UniProt P28908),inactive: 0.025
13,TPM2 (UniProt P07951),inactive: 0.201
14,TPX2 (UniProt Q9ULW0),inactive: 0.004
15,TPST2 (UniProt O60704),inactive: -0.011
16,TOR1A (UniProt O14656),inactive: 0.003

row,Target,log2 fold change
1,TRMT13 (UniProt Q9NUP7),inactive: -0.067
2,TRMT1L (UniProt Q7Z2T5),inactive: 0.082
3,TPMT (UniProt P51580),inactive: 0.099
4,TPI1 (UniProt P60174),inactive: -0.005
5,TOR4A (UniProt Q9NXH8),inactive: 0.068
6,TNKS1BP1 (UniProt Q9C0C2),inactive: 0.105
7,TRAPPC11 (UniProt Q7Z392),inactive: 0.007
8,TRIM32 (UniProt Q13049),inactive: -0.075
9,TOMM22 (UniProt Q9NS69),inactive: 0.047
10,TOMM5 isoform 2 (UniProt Q8N4H5),inactive: 0.084
11,TOM1 isoform 2 (UniProt O60784),inactive: -0.082
12,TRAPPC2L (UniProt Q9UL33),inactive: 0.054
13,TRIP10 isoform 2 (UniProt Q15642),active: -0.849
14,TPD52L2 isoform 7 (UniProt O43399),inactive: -0.015
15,"TPM4, A0A2R8Y5V9",inactive: 0.013
16,TOM1L1 (UniProt O75674),inactive: 0.018
